Experimental data reported in the supplement of paper PMC10735217.
Where a name gives a salt, the structure may show the parent alone. The list shows a part of the results. Single values are uncertain here, since repeats match poorly.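 Human kidney-derived cells stably carry a construct in which eight TEAD-binding elements drive luciferase, measured by luminescence in a drug-repurposing library screen. A hit is any compound whose signal exceeds the plate mean by more than five robust Z scores.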

Tested on: HEK293A TEAD-LUC reporter
Assay: TEAD-luciferase reporter activity (YAP activation), robust Z score vs plate; higher = stronger YAP/TEAD activation
Details: 24 h

SMILES | TEAD-luciferase reporter activity (compound concentration: 200 nM) | TEAD-luciferase reporter activity (compound concentration: 2 uM) | TEAD-luciferase reporter activity (compound concentration: 10 uM)
COc1ccccc1N1CCN(C(=O)c2ccc(CN3CCCCC3)cc2)CC1 | inactive: -0.604 | inactive: -0.817 | inactive: -0.128
CCOCN1C2=C(C(=O)Nc3ccccc3F)C(=O)CCN2c2ccc(F)cc21 | inactive: 0.323 | inactive: -0.0838 | inactive: -1.54
O=C(c1ccc(OCCN2CCCCC2)cc1)c1c(-c2ccc(O)cc2)sc2cc(O)ccc12 | inactive: 0.00704 |  | inactive: -0.596
O=C(c1ccc(OCCN2CCCCC2)cc1)c1c(-c2ccc(O)cc2)sc2cc(O)ccc12 [raloxifene hydrochloride] |  | inactive: -0.663 | 
CC(C)=CCCC(C)=CCO | inactive: -0.17 | inactive: -1.64 | inactive: 2.49
CCCSc1ccccc1N1CCN(CCCCn2c(=O)[nH]c3ccc(C)cc3c2=O)CC1 | inactive: 0.391 | inactive: -1.42 | inactive: 1.79
N#Cc1ccccc1OCC(O)CNCCNC(=O)Cc1ccc(O)cc1 (stereo not given) | inactive: -0.164 | inactive: -0.703 | inactive: -0.948
CC[n+]1ccc(SCC2=C(C(=O)[O-])N3C(=O)[C@@H](NC(=O)/C(=N\O[C@@H](C)C(=O)O)c4csc(N)n4)[C@H]3SC2)cc1 | inactive: -2.7 | inactive: 0.636 | inactive: 1.8
CCCS(=O)(=O)NC(=O)c1ccc(N(CC)Cc2cc(Br)ccc2OCC2CC2)nn1 | inactive: -1.17 | inactive: 0.299 | inactive: 2.42
C[C@H]1NCc2cc(-c3ccc4c(=O)c(C(=O)O)cn(C5CC5)c4c3OC(F)F)ccc21 | inactive: -1 | inactive: 0.0685 | inactive: 0.795
CCCSc1ccc2[nH]c(NC(=O)OC)nc2c1 [Albendazole] | inactive: -1.26 |  | inactive: 2.72
CCCSc1ccc2[nH]c(NC(=O)OC)nc2c1 [albendazole] |  | inactive: -0.146 | 
CCC[C@]1(CC(=O)O)OCCc2c1[nH]c1c(C)ccc(C#N)c21 | inactive: -0.562 | inactive: -0.487 | inactive: -0.968
O=[N+]([O-])c1nccn1CC(O)CO (stereo not given) | inactive: -2.15 | inactive: -1.79 | inactive: 4.4
CC(=O)Nc1c(I)c(NC(C)=O)c(I)c(C(=O)O)c1I [Diatrizoate] | inactive: -1.13 | inactive: -1.21 | inactive: 1.49
O=C(O)CCCc1cc2cc(Cl)ccc2n1S(=O)(=O)c1ccc2ncsc2c1 | inactive: 0.849 | inactive: 1.46 | inactive: -0.232
COc1cc2c(cc1S(=O)(=O)c1ccc(OCc3ccc(Cl)cc3)cc1)CCN(C)CC2 | inactive: 0.391 | inactive: -0.236 | active: 6.77
COc1cc(C2CC(O)c3ccc4ccccc4c3O2)cc(OC)c1OC (stereo not given) | inactive: -0.591 | inactive: -0.833 | inactive: 1.78
CCCCNC(=O)c1ccc(Oc2ccc(CC(=O)O)cc2OC)c(NS(=O)(=O)c2ccc(Cl)cc2Cl)c1 | inactive: -1.03 | inactive: -0.2 | inactive: -1.71

Retrieved one by one from the entries so far:
SMILES | TEAD-luciferase reporter activity (compound concentration: 200 nM) | TEAD-luciferase reporter activity (compound concentration: 2 uM) | TEAD-luciferase reporter activity (compound concentration: 10 uM)
CCCCNC(=O)c1ccc(Oc2ccc(CC(=O)O)cc2OC)c(NS(=O)(=O)c2ccc(Cl)cc2Cl)c1 | inactive: -1.03 | inactive: -0.2 | inactive: -1.71
CCCSc1ccc2[nH]c(NC(=O)OC)nc2c1 [albendazole] |  | inactive: -0.146 | 

Going on with the list:

SMILES | TEAD-luciferase reporter activity (compound concentration: 200 nM) | TEAD-luciferase reporter activity (compound concentration: 2 uM) | TEAD-luciferase reporter activity (compound concentration: 10 uM)
CS(=O)(=O)c1ccc([C@@H](CC2CCCC2)C(=O)Nc2ncc(SCC(=O)O)s2)cc1 | inactive: -1.38 | inactive: -0.653 | inactive: -0.904
CCN1CCCC1CNC(=O)c1cc(S(=O)(=O)CC)c(N)cc1OC (stereo not given) [amisulpride] |  | inactive: 0.47 | 
CCN1CCCC1CNC(=O)c1cc(S(=O)(=O)CC)c(N)cc1OC (stereo not given) [Amisulpride] | inactive: 2.8 |  | inactive: -2.02
CN(c1ccc(/C=C/C[C@H](NC(=O)c2ccccc2Cl)C(=O)O)cc1)c1ncccn1 | inactive: -0.548 | inactive: -0.363 | inactive: -0.242
CNC(=O)[C@@H](NC(=O)[C@@H](CC(=O)NO)CC(C)C)C(C)(C)C | inactive: -0.295 | inactive: -0.958 | inactive: -0.335
CCCN(CC1CC1)c1nc(C)nc(Nc2c(Cl)cc(C)c3nccnc23)c1C | inactive: -1.93 | inactive: 0.73 | inactive: -1.39
COc1nc(C)cnc1NS(=O)(=O)c1cccnc1-c1ccc(-c2nnco2)cc1 | inactive: 2.16 |  | inactive: -0.845
COc1nc(C)cnc1NS(=O)(=O)c1cccnc1-c1ccc(-c2nnco2)cc1 [Zibotentan] |  | inactive: 0.718 | 
C=C(N)N1CC[C@H](SC2=C(C(=O)O)N3C(=O)[C@H]([C@@H](C)O)[C@H]3C2)C1 | inactive: 0.315 | inactive: -2.2 | inactive: 0.123
CC(C)[C@H](C(=O)Nc1ccc(C(=O)NO)cc1)c1ccccc1 | active: 7.38 | active: 21.4 | active: 19.4
COC(=O)Nc1nc2ccc(C(=O)c3cccs3)cc2[nH]1 [nocodazole] | inactive: 1.74 | active: 11.9 | inactive: 4.11
CN(C)CCCN1c2ccccc2C(C)(C)c2ccccc21 | inactive: -1.28 | inactive: -1.17 | inactive: 1.95
O=C1C(Cl)=C(NCCN2CCOCC2)C(=O)c2ncccc21 | inactive: -2.64 | inactive: 0.445 | inactive: 1.96
O=C(NC1CCN(Cc2cccc(-c3ccc(F)c(F)c3)c2)CC1)c1ccc(F)cc1 | inactive: -0.734 |  | inactive: 0.946
O=C(Cc1ccccc1)NCC(=O)Nc1ccc(C2S/C(=N\c3cccc(F)c3)N(Cc3ccco3)C2=O)cc1 (stereo not given) | inactive: 1.8 | inactive: -1.04 | inactive: 1.06
CC(C)OC(=O)OCOP(=O)(CO[C@H](C)Cn1cnc2c(N)ncnc21)OCOC(=O)OC(C)C [tenofovir disoproxil fumarate] | inactive: -1.16 | inactive: 2.27 | inactive: -0.607
CCCCC1(CCCC)CCc2c(OCc3ccc4ccccc4n3)cccc2C1O (stereo not given) | inactive: -0.756 | inactive: 0.722 | inactive: 1.93
Cc1cn([C@H]2C[C@H](N=[N+]=[N-])[C@@H](CO)O2)c(=O)[nH]c1=O [AZT, Supratek] |  | inactive: -1.46 | 
Cc1cn([C@H]2C[C@H](N=[N+]=[N-])[C@@H](CO)O2)c(=O)[nH]c1=O | inactive: -0.82 |  | inactive: 0.113

SMILES | TEAD-luciferase reporter activity (compound concentration: 200 nM) | TEAD-luciferase reporter activity (compound concentration: 2 uM) | TEAD-luciferase reporter activity (compound concentration: 10 uM)
Cc1c(Cc2cccnc2S(=O)(=O)c2ccc(F)cc2)c2cc(F)ccc2n1CC(=O)O | inactive: -0.3 | inactive: -0.625 | inactive: 0.24
OO [hydrogen peroxide] | inactive: 0.377 | inactive: 0.352 | inactive: 0.0104
COc1ccc([C@H](CC(=O)O)N2CCN(CCCc3ccc4c(n3)NCCC4)C2=O)cn1 | inactive: -1.01 | inactive: -1.67 | inactive: -1.69
CC(C)N(CC(=O)N1CCOCC1)Cc1c(Cl)cccc1NC(=O)c1ccccc1 | inactive: -0.525 | inactive: -0.497 | inactive: 2.22
Nc1nc(/C(=N/OCc2cnc[nH]2)C(=O)N[C@@H]2C(=O)N3C(C(=O)O)=C(C[n+]4ccccc4)CS[C@H]23)cs1 [Pharmaprojects No. 2479] | inactive: 0.256 | inactive: -0.606 | inactive: -0.954
CC(C)(NCCCn1ccnc1)c1ccc(Cl)cc1 | inactive: -1.82 | inactive: -0.836 | inactive: -0.266
Cn1cnc(-c2cc3nccc(Oc4ccc(NC(=S)NC(=O)Cc5ccccc5)cc4F)c3s2)c1 | inactive: 2.24 | inactive: -2.09 | inactive: -0.4
CN1CCN(C[C@@H]2C(=O)Nc3ccccc3S[C@@H]2c2ccccc2)CC1 | inactive: 1.19 | inactive: 0.696 | inactive: 1.5
CO[C@@H]1C[C@H](C(=O)Nc2ccc(-n3ccccc3=O)cc2F)N(C(=O)Nc2ccc(Cl)cc2)C1 | inactive: -1.27 | inactive: -0.191 | inactive: 0.192
C#C[C@]1(O)CC[C@H]2[C@@H]3CCC4=CCCC[C@@H]4[C@H]3C(=C)C[C@@]21CC [Desogestrel] | inactive: 0.0709 | inactive: -0.851 | inactive: -0.205
CC1=C(c2ccc(O)cc2)C(c2ccc(OCCN3CCCCC3)cc2)Oc2cc(O)ccc21 (stereo not given) | inactive: 0.53 | inactive: -0.494 | inactive: -1.23
CC(C)CN(C(=O)c1cccc(Cl)c1Cl)[C@H]1CCNC1 | inactive: -1.5 | inactive: -0.228 | inactive: 1.06
CCC(C(=O)O)c1ccc(-c2ccccc2)cc1 (stereo not given) | inactive: -0.24 | inactive: -0.39 | inactive: 0.463
O=c1c(N2CCCC2)c(O)c2cccnc2n1-c1ccccc1 | inactive: 1.96 | inactive: -1.18 | inactive: 3.02
Cc1cc(NS(=O)(=O)c2ccc(N)cc2)no1 | inactive: -0.487 | inactive: 0.0987 | inactive: -0.739
CCCn1c(=O)n(C2CC2)c(=O)c2[nH]c(-c3ccc(N(CC)C(=O)c4cccnc4)nc3)nc21 | inactive: -0.423 | inactive: 2.17 | inactive: -0.613
OC(CCl)CN1CC[N+]2(CC1)CC[N+]1(CCN(CC(O)CCl)CC1)CC2 (stereo not given) | inactive: -0.99 | inactive: -1.34 | inactive: -0.319
CC(C)CNC1CCS(=O)(=O)c2sc(S(N)(=O)=O)cc21 (stereo not given) [Sezolamide hydrochloride] | inactive: -0.227 | inactive: 0.675 | inactive: 2.04
CC(C(=O)OCCCCO[N+](=O)[O-])c1cccc(C(=O)c2ccccc2)c1 (stereo not given) | inactive: -2.17 | inactive: 1.99 | inactive: 0.543
